By UniProt entry, the sequences of proteins in these tests, tags left out.
UniProt Q8S307: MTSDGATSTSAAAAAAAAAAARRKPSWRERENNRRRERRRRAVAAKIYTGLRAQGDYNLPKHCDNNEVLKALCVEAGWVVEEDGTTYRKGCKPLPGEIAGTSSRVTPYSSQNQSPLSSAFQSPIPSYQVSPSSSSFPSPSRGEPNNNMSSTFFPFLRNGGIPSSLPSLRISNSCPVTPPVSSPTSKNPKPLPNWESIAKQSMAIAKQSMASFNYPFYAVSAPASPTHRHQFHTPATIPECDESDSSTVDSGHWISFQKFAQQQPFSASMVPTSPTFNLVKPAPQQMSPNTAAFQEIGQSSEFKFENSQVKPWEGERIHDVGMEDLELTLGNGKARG

In publication PMC10015162:

Key:
[1] = biological target: T1, PP2AB′α-YFP-TbID (PP2A regulatory subunit B′α fused with YFP and TurboID) (Arabidopsis thaliana) (UniProt O04375); assay: proximity labelling; TurboID fusion co-expressed with BZR1-MH in N. benthamiana leaves; 50 µM biotin for 3 h; extract desalted; streptavidin pulldown; immunoblot with anti-Myc
T1 sequence: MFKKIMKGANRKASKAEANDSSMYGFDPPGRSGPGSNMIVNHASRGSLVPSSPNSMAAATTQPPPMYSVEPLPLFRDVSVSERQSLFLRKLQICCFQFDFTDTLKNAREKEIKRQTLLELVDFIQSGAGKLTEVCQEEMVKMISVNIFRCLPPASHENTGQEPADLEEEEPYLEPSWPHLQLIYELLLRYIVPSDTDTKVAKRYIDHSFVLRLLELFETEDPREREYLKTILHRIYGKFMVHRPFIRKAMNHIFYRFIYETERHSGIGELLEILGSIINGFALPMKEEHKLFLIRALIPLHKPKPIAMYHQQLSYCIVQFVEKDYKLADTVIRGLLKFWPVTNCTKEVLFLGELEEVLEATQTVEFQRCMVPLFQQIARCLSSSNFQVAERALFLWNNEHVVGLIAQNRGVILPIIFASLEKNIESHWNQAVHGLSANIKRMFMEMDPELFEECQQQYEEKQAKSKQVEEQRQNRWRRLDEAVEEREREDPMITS

[2] = biological target: T2, PP2AB′ε-YFP-TbID (PP2A regulatory subunit B′ε fused with YFP and TurboID) (Arabidopsis thaliana) (UniProt Q9SV41); assay: as above
T2 sequence: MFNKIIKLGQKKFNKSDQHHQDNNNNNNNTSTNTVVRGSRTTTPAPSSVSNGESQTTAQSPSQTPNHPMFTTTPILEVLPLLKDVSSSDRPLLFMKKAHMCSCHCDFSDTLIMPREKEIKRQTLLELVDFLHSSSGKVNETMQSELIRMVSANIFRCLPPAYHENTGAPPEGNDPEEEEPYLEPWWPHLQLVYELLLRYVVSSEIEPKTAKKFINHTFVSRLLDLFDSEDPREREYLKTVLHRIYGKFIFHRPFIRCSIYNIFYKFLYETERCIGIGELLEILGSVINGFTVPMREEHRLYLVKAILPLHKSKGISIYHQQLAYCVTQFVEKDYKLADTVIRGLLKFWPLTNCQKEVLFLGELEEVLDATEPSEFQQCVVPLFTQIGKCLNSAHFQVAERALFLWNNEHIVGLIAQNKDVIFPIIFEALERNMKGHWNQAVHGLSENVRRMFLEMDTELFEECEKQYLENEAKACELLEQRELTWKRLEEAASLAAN

binding [1]: binds
binding [2]: no binding
Substance: BZR1-MH (BZR1 fused with 4×Myc-6×His tag) (from UniProt Q8S307 1-336)

No constants are given. Whether binding was seen depends on the method and setting. In cells and extracts the contact can be indirect. A yes stands for co-enrichment or nearness to the bait. Other partners may have been found. For some assays here: A no says only that the protein was not detected with the bait. Where a sequence is shown, tags or fusion partners need not be part of it.
